Laboratory results published in PMC7652414.
These are yes or no findings as the source states them, for the method shown. Binding seen in cells or lysates may run through a third protein. Some entries that bind do so weakly or less than the wild type. For some of these results: Tags and fused reporters may be left off the sequences shown. One block for each binder: values may come before it.

The chains behind the UniProt entries cited, without tags or fusion partners.
UniProt Q9Y496: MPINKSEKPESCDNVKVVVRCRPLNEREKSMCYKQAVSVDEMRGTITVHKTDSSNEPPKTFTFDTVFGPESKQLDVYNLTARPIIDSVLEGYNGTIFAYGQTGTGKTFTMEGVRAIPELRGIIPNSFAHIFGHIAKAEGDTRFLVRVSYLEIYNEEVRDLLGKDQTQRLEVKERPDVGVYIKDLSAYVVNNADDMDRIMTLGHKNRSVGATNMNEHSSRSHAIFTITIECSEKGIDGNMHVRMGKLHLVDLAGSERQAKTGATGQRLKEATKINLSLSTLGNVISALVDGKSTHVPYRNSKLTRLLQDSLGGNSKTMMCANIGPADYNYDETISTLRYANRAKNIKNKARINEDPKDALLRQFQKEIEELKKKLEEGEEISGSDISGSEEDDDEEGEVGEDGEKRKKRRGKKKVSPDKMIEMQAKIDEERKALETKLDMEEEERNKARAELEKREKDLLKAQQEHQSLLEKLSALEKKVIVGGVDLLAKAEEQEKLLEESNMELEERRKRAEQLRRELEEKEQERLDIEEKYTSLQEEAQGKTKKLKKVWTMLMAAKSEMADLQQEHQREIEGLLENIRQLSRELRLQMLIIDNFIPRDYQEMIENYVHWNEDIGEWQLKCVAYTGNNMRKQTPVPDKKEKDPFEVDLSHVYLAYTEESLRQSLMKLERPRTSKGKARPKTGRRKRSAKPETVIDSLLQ

Experiments:
[1] = target: KIF3A-MBP (human) (UniProt Q9Y496); experiment: pull-down; HsKinesin-II subunits co-expressed in Sf9, co-purified using Ni column and MBP column successively; SDS-PAGE with Coomassie staining or immunoblotting with antibodies against KIF3A, KIF3B or KAP3
[2] = target: T1, FLA8 (FLA8-GFP and FLA8-MBP co-expressed in HEK293T) (Chlamydomonas reinhardtii) (UniProt A7LGV1); experiment: co-IP; as a1, HEK293T co-expressing the GFP- and MBP-tagged copies alone or including the other motor subunit and KAP; anti-GFP immunoprecipitation, immunoblot
T1 sequence: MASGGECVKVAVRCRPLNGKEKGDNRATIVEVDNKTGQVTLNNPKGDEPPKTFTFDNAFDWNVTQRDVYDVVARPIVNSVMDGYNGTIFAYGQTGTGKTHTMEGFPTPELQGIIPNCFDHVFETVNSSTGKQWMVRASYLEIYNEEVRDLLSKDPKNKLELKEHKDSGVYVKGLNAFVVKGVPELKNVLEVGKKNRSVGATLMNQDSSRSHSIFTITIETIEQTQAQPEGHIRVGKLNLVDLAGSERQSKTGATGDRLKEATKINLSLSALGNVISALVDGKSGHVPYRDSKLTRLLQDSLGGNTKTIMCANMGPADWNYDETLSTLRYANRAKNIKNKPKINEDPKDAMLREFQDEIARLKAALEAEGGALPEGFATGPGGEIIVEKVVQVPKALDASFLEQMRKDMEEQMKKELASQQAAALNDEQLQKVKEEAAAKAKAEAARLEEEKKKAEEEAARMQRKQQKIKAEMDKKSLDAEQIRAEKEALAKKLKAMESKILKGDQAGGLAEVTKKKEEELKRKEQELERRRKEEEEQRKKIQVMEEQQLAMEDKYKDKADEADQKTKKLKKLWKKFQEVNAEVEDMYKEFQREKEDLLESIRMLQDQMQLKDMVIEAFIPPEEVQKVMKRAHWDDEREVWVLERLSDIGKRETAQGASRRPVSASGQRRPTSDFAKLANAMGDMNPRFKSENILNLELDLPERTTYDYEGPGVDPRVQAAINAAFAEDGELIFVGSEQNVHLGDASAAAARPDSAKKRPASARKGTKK

[3] = target: T1, FLA8 (FLA8-GFP and FLA8-MBP co-expressed in HEK293T) (Chlamydomonas reinhardtii); experiment: co-IP; GFP- and MBP-tagged copies co-expressed in HEK293T (48 hr; also with 7.5-fold less plasmid DNA); lysis buffer PBS pH 7.4, 150 mM KCl, 1 mM MgCl2, 1 mM EGTA, 0.1 mM ATP, 0.5% NP-40; anti-GFP beads, 4°C, 2 hr; immunoblot with GFP and MBP antibodies
[4] = target: T2, FLA10 (FLA10-GFP and FLA10-MBP co-expressed in HEK293T) (Chlamydomonas reinhardtii) (UniProt P46869); experiment: co-IP; as a1, HEK293T co-expressing the GFP- and MBP-tagged copies alone or including the other motor subunit and KAP; anti-GFP immunoprecipitation, immunoblot
T2 sequence: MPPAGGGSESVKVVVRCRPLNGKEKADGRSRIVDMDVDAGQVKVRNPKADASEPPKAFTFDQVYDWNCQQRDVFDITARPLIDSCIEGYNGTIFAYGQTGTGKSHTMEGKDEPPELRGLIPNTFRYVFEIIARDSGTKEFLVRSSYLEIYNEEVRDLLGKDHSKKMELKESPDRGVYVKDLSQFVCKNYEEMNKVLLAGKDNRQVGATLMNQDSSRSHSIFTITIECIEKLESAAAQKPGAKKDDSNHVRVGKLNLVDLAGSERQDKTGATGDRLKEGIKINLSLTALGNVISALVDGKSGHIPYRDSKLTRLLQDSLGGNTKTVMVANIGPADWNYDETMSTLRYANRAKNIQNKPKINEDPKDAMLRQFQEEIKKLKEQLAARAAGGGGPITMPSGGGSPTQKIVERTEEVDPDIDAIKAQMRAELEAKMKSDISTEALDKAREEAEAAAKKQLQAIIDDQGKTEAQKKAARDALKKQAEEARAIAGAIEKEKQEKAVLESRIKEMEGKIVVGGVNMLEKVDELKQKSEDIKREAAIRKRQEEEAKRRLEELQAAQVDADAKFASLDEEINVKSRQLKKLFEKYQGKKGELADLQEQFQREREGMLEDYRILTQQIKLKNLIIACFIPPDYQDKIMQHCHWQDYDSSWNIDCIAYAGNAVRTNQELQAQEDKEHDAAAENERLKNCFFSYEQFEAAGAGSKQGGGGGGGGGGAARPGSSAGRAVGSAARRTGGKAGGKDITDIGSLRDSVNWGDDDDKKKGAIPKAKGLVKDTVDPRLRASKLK

[5] = target: T2, FLA10 (FLA10-GFP and FLA10-MBP co-expressed in HEK293T) (Chlamydomonas reinhardtii); experiment: co-IP; GFP- and MBP-tagged copies co-expressed in HEK293T (48 hr; also with 7.5-fold less plasmid DNA); lysis buffer PBS pH 7.4, 150 mM KCl, 1 mM MgCl2, 1 mM EGTA, 0.1 mM ATP, 0.5% NP-40; anti-GFP beads, 4°C, 2 hr; immunoblot with GFP and MBP antibodies

B2: FLA8 (FLA8-GFP and FLA8-MBP co-expressed in HEK293T) (protein, UniProt A7LGV1 1-768)
chain: T1 sequence
binding [2]: binds | binding [3]: binds

B5: FLA10 (pCMV-FLA10, expressed in HEK293T) (protein, UniProt P46869 1-786)
chain: T2 sequence
binding [2]: binds

The next lines start with the values.

binding [1]: binds
B1: KIF3B-RFP (protein, UniProt O15066 1-747)
chain: MSKLKSSESVRVVVRCRPMNGKEKAASYDKVVDVDVKLGQVSVKNPKGTAHEMPKTFTFDAVYDWNAKQFELYDETFRPLVDSVLQGFNGTIFAYGQTGTGKTYTMEGIRGDPEKRGVIPNSFDHIFTHISRSQNQQYLVRASYLEIYQEEIRDLLSKDQTKRLELKERPDTGVYVKDLSSFVTKSVKEIEHVMNVGNQNRSVGATNMNEHSSRSHAIFVITIECSEVGLDGENHIRVGKLNLVDLAGSERQAKTGAQGERLKEATKINLSLSALGNVISALVDGKSTHIPYRDSKLTRLLQDSLGGNAKTVMVANVGPASYNVEETLTTLRYANRAKNIKNKPRVNEDPKDALLREFQEEIARLKAQLEKRSIGRRKRREKRREGGGSGGGGEEEEEEGEEGEEEGDDKDDYWREQQEKLEIEKRAIVEDHSLVAEEKMRLLKEKEKKMEDLRREKDAAEMLGAKIKAMESKLLVGGKNIVDHTNEQQKILEQKRQEIAEQKRREREIQQQMESRDEETLELKETYSSLQQEVDIKTKKLKKLFSKLQAVKAEIHDLQEEHIKERQELEQTQNELTRELKLKHLIIENFIPLEEKSKIMNRAFFDEEEDHWKLHPITRLENQQMMKRPVSAVGYKRPLSQHARMSMMIRPEARYRAENIVLLELDMPSRTTRDYEGPAIAPKVQAALDAALQDEDEIQVDASSFESTANKKSKARPKSGRKSGSSSSSSGTPASQLYPQSRGLVPK

binding [4]: binds
B3: FLA8 (pCMV-FLA8, expressed in HEK293T) (protein, UniProt A7LGV1 1-768)
chain: T1 sequence

binding [4]: binds | binding [5]: binds
B4: FLA10 (FLA10-GFP and FLA10-MBP co-expressed in HEK293T) (protein, UniProt P46869 1-786)
chain: T2 sequence
